# Source: PubChem BioAssay AID602158 (Broad Institute, 2011)
# The chains behind the UniProt entries cited, without tags or fusion partners. Where a name states a change or a piece, a line headed by the entry shows the natural chain unless it says otherwise.
# UniProt Q9BYT3: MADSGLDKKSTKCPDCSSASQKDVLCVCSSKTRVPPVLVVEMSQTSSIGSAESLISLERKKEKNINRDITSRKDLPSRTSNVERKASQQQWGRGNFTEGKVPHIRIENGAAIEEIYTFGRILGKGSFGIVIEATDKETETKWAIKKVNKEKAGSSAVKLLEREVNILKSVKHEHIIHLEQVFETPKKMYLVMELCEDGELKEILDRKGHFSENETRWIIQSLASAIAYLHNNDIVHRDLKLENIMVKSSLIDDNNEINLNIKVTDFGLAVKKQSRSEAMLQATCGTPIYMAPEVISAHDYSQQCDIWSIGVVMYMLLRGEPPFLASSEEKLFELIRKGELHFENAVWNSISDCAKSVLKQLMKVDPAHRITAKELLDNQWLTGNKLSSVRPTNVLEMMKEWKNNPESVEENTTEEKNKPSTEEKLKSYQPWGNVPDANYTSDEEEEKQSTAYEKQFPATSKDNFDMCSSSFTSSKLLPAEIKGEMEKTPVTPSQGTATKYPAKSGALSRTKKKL
# Listed are the inconclusive results; actives and inactives stand elsewhere.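 The calls were made as follows: active = half-maximal potency at or below twice the top valid dose in every separate test run, with falling signal; inconclusive = runs disagree, or flat 30 to 70% inhibition, or poor fit; inactive = inactive in every run, including rising signal.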
# Target: Serine/threonine-protein kinase 33 (Homo sapiens) (UniProt Q9BYT3)
# Assay: inhibition of purified STK33 phosphorylating MBP – biochemical, ADP-Glo luminescence, dry powder, set 3, dose response (AID 602158)
# Conditions: purified STK33, MBP phosphorylation; at 10 µM (top of the series)
# Summary of the method: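 Material – purified STK33 kinase enzyme · Buffer or medium – MOPS-based assay buffer, pH 7.0, with BSA and BME · Reagent – MBP substrate, ATP at Km · Schedule – 15 min enzyme–compound preincubation at room temperature, 60 min kinase reaction · Technique – ADP-Glo luminescence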
smiles,measurement,value
Cc1ccc(NC(=O)c2cccs2)c(-c2nc3ccccc3[nH]c2=O)c1,"activity change, negative = inhibition",inconclusive: -12.9%
